In test [1] the target is HIRA (histone chaperone), mouse (mouse (endogenous in W9.5 ES cells)) (UniProt Q61666). The experiment in a line: fluorescence microscopy of live cells; live cells grown in confocal dishes, stained with TM2-FITC diluted in PBS, briefly washed and imaged; wild type against Hira-/- ES cells; only the binder purified.
The target of test [2] is HIRA (histone chaperone), human (human (endogenous in HSC-4)) (UniProt P54198). The experiment in a line: flow cytometry on cells; live cells resuspended in 75 ul PBS containing TM2-FITC for one hour, diluted with 200 ul PBS, analysed or sorted at once on FACS Aria II; no permeabilisation; Hira-/- ES cells as control; only the binder purified. On the technique in general: In flow cytometry, cells or beads pass a laser one at a time.

Amino acid sequences for entries named in this document (tags omitted).
UniProt Q61666: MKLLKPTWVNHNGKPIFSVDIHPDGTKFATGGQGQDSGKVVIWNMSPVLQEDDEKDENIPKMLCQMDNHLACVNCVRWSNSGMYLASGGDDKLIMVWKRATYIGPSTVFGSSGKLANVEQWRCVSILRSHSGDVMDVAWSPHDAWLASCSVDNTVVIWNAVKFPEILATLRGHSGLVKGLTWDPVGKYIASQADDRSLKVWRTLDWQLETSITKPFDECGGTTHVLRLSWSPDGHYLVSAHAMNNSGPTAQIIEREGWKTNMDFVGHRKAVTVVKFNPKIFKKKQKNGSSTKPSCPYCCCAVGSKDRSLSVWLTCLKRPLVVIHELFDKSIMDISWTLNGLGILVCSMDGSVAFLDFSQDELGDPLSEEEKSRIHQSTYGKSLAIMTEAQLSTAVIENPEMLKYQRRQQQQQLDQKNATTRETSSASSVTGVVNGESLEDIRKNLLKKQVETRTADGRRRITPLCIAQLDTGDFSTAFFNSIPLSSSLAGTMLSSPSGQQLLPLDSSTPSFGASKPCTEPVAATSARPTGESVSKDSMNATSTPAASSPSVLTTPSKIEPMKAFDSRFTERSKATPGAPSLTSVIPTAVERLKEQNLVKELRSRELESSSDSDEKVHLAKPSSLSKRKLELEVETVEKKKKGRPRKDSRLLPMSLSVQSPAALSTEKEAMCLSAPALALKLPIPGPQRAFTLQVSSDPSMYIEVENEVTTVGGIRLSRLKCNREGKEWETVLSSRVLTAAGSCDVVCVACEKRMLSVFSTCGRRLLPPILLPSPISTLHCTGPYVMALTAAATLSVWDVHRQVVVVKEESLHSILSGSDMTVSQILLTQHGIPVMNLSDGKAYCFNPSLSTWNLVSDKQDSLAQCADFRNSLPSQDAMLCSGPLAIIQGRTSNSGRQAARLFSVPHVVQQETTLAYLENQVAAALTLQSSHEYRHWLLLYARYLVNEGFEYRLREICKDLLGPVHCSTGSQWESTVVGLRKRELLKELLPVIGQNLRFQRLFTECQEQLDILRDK
UniProt P54198: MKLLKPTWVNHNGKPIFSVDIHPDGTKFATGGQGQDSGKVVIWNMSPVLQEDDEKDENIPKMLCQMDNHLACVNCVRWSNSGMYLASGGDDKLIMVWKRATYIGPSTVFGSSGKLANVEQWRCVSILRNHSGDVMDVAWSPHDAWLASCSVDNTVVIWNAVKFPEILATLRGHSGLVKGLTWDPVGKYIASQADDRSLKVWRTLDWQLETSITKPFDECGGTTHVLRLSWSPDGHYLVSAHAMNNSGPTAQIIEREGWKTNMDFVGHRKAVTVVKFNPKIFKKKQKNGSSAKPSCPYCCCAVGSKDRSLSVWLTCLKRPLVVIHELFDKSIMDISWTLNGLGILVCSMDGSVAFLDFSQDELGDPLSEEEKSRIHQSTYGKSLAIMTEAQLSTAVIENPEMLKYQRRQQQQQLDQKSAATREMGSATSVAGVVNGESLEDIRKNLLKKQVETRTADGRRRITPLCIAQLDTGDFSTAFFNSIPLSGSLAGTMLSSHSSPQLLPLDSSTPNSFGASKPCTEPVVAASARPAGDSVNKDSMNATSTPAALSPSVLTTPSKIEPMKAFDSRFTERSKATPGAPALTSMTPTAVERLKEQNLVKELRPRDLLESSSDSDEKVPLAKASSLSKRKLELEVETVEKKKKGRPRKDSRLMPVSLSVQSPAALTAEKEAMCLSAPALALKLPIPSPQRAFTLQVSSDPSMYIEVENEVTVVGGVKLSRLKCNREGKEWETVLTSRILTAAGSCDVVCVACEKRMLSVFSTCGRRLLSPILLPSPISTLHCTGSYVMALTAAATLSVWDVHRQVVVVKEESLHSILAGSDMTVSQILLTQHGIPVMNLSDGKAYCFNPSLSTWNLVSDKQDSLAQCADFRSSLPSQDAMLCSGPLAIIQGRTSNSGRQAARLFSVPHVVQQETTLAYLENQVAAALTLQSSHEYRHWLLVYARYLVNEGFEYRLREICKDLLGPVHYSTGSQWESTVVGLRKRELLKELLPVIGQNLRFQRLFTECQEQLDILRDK

The target of test [3] is HIRA (histone chaperone), mouse (mouse (endogenous in W9.5 ES cells)) (UniProt Q61666). The description is as above.
The target of test [4] is HIRA (histone chaperone), human (human (endogenous in HSC-4)) (UniProt P54198). The experiment in a line: far-Western, overlay or dot blot; RIPA lysates of oral cancer cell lines resolved by 10% SDS-PAGE, transferred to nitrocellulose; biotin-tagged peptide (2 uM) used instead of primary antibody, detected with streptavidin-HRP and ECL; only the binder purified.

These results are taken from article PMC4657044, “Live detection and purification of cells based on the expression of a histone chaperone, HIRA, using a binding peptide” (Scientific Reports, 2015).

No constants are given. Whether binding was seen depends on the method and setting. Some results given as binding are weak or reduced against the parent protein; the word gives no strength. For some of these results: Tags and fused reporters may be left off the sequences shown.

In the case of PKKGSKKAVTKAQKKDGA (C-terminal amide; FITC (site not stated)) [TM2-FITC], the binding result in test [1], in test [2] and in test [3] was “binds” throughout.

PKKGSKKAVTKAQKKDGA (C-terminal amide; biotin (site not stated)) [biotin-tagged TM2 peptide]: in test [4], the binding entry is “binds”.
